## Small-molecule microarray binding calls

Data from the ROBIN nucleic acid binder screens, doi:10.1002/anie.202211358.

Oligonucleotides screened, 5′ to 3′:
T1: PreQ1 riboswitch RNA pseudoknot, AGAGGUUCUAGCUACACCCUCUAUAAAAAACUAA. From B. subtilis. Hit rate about 0.7% of about 24,000 compounds.
T2: TPP riboswitch RNA three-way junction, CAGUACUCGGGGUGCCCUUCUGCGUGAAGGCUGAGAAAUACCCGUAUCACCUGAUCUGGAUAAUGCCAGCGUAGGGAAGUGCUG. Hit rate about 0.7% of about 24,000 compounds.
T3: SAM-II riboswitch RNA pseudoknot, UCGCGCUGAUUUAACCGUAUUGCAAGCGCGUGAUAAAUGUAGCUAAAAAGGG. Hit rate about 1% of about 21,000 compounds.

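Each compound is printed as two spots on a slide made to bind it covalently, so it has no test concentration; the read-out is fluorescence of the bound, labelled oligonucleotide. The data file lists only calls. An earlier report of the laboratory on the PreQ1, TPP and SAM-II riboswitches (doi:10.1038/s41467-019-09493-3) used 1 µM RNA for 2 h and required a mean Z-score above 3 (spot signal-to-noise against the whole library), a score well above that on a control array, and duplicate spots agreeing (coefficient of variation under 100); it then also set aside compounds that hit other targets, which this list keeps. The cut-offs behind this list may differ. A missing hit is not proof of no binding, and a hit is not a measured affinity.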
Key: Y = hit, N = tested without a hit.
The compounds are a random part of those screened.
A target missing from an entry has no call listed here.

structure: Cc1ccccc1Cn1c(-c2nonc2N)nc2ccccc21
T1: N
T2: N
T3: Y

structure: O=S1(=O)C[C@H](NC2CC2)[C@@H](S(=O)(=O)c2ccc(F)cc2)C1
T1: N
T2: N

structure: CCC[C@H]1CN(S(=O)(=O)c2c(C)noc2C)C[C@@H]1N
T1: N
T2: N
T3: N

structure: Cc1ncsc1CCC(=O)NCC(CO)Cc1cccs1 (centres unmarked)
T1: N
T2: N
T3: N

structure: CCc1n[nH]c(SCC(=O)N2C[C@@H](CN3CCOCC3)[C@@H](CO)C2)n1
T1: N
T2: N
T3: N

structure: Cc1cc(NC(C)C)n2nc(-c3ccccc3)c(C)c2n1
T1: N
T2: N

structure: Nc1ccnn1Cc1ccc2c(c1)OCO2
T1: N
T2: N
T3: N

structure: CCn1ccc(C(=O)N2Cc3ccccc3C(O)C2)cc1=O (centres unmarked)
T1: N
T2: N
T3: N

structure: [O-]/[N+](=C\c1ccccc1)CC1(O)CCCCC1
T1: N
T2: N
T3: N

structure: COC(=O)CCCNc1cc(C)nc2nc(-c3ccc(C)cc3)nn12
T1: N
T2: N

structure: CCCC1(CO)CCCN(Cc2snnc2C)C1 (centres unmarked)
T1: N
T2: N
T3: N

structure: CCN1CCC(n2cc(CNc3cc(Cl)c4ncc(C#N)c(Nc5ccc(F)c(Cl)c5)c4c3)nn2)CC1
T1: N
T2: N
T3: N

structure: C=CCNc1nc2c(c(=O)[nH]c(=O)n2C)n1CCO
T1: N
T2: N
T3: N

structure: C[C@@H]1CN(C[C@@H]2CN(C(=O)Cc3cccnc3)C[C@@H]2CO)C[C@H](C)O1
T1: N
T2: N
T3: N

structure: CCc1cnc(C)nc1N1CCC(NCc2nc(-c3cnccn3)n[nH]2)CC1
T1: N
T2: N
T3: N

structure: Cc1ccc(NC2=C(C(N)=O)S(=O)(=O)c3ccccc32)c(C)c1
T1: N
T2: N

structure: Cc1cc(C)nc(N2CCC(NC3CC(=O)N(c4ccc(F)cc4)C3=O)CC2)n1 (centres unmarked)
T1: N
T2: N
T3: N

structure: COc1ccc(CNCc2c(C(=O)O)[nH]c3cc(C)ccc23)cc1
T1: N
T2: N

structure: COc1cccc([C@H]2CN(C(=O)CCCn3cncn3)C[C@@H]2N)c1
T1: N
T2: N
T3: N

structure: O=S(=O)(c1ccc(F)cc1)c1nc(-c2ccc(Cl)cc2)oc1NCCCn1ccnc1
T1: N
T2: N

structure: c1cc(CN2CCCCC2)cc(-n2ccnc2-c2cc3n(n2)CCCNC3)c1
T1: N
T2: N
T3: N

structure: Cc1ccc(S(=O)(=O)Nc2ccccc2CNc2ccc(Cl)cc2)cc1
T1: N
T2: N
T3: N

structure: CC(C)c1ccc(NC(=O)Cn2nnc(C(=O)NCc3ccccc3)c2N)cc1
T1: N
T2: N
T3: N

structure: CCn1c(C2CCCNC2)nn(CCCS(=O)(=O)N(C)C)c1=O (centres unmarked)
T1: N
T2: N
T3: N

structure: Cn1ccnc1SCCNCC1(O)CNCCOC1 (centres unmarked)
T1: N
T2: N
T3: N

structure: CCCCc1nc(-c2c(-c3ccccc3)ncn2CC2CCNCC2)c[nH]1
T1: N
T2: N
T3: N

structure: COc1ccccc1CCNC(=O)CN1CCOCC(CO)C1 (centres unmarked)
T1: N
T2: N
T3: N

structure: COc1ccc2c(CNCc3cccs3)c(C(=O)O)n(Cc3ccc(F)cc3)c2c1
T1: N
T2: N

structure: Nc1nc(N2CCOCC2)nc2c1C(c1ccc3cccc(O)c3n1)CC(=O)N2 (centres unmarked)
T1: N
T2: N
T3: N

structure: COC(=O)c1cncc(C)c1
T1: N
T2: N
T3: N

structure: N[C@H]1CC[C@@H](n2cc(C(=O)NCCSCc3ccccc3)nn2)CC1
T1: N
T2: N
T3: N

structure: COc1cccc(CNc2nc3c(C)cccc3cc2-c2noc(C(C)C)n2)c1
T1: N
T2: N

structure: Nc1nc(COc2ccc3c(c2)OCO3)nc(N2CCCCC2)n1
T1: N
T2: N
T3: N

structure: OC1CCCOC12CCN(c1ccc(-c3ccc(F)cc3)nn1)CC2 (centres unmarked)
T1: N
T2: N
T3: N

structure: Cn1cnc2cc(C(=O)N3CCC(Cc4cccc(CO)c4)C3)ccc2c1=O (centres unmarked)
T1: N
T2: N
T3: N

structure: O=C(c1cc(C2CC2)nc2ccccc12)N1CCC2(CC1)OCCCC2O (centres unmarked)
T1: N
T2: N
T3: N

structure: CCCc1[nH]nc2c1C1(CCN(C)CC1C)C(C#N)=C(N)O2 (centres unmarked)
T1: N
T2: N
T3: N

structure: O=C(Nc1cccc(Cl)c1)Nn1cnnc1
T1: N
T2: N
T3: N

structure: COc1ccc(Cl)cc1NC(=O)c1nccnc1CO
T1: N
T2: N
T3: N

Some entries from above, unchanged:

structure,T1,T2,T3
O=C(c1cc(C2CC2)nc2ccccc12)N1CCC2(CC1)OCCCC2O (centres unmarked),N,N,N
Cc1ccccc1Cn1c(-c2nonc2N)nc2ccccc21,N,N,Y
CCC[C@H]1CN(S(=O)(=O)c2c(C)noc2C)C[C@@H]1N,N,N,N
CCc1n[nH]c(SCC(=O)N2C[C@@H](CN3CCOCC3)[C@@H](CO)C2)n1,N,N,N